From PubChem BioAssay AID493014 (National Center for Advancing Translational Sciences (NCATS), 2011)
Some of the results follow. The main result of the screen is listed elsewhere. These columns were measured beside it and carry no call. Compounds called inactive in the main read-out are mostly missing here. Words in brackets tell the shape of the fitted curve; partial curves, single points and poor fits give uncertain potencies.

Test: qHTS Assay to Find Inhibitors of Chronic Active B-Cell Receptor Signaling
Details: ABC-DLBCL IkBa-CBG/CBR reporter, luminescence ratio (green luciferase fused to IkBa over red control in TMD8 lymphoma cells), 4 h
Outline: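 Concentration-response series (up to 46 uM) were applied to TMD8 dual-reporter cells for 4 h at 37C with doxycycline. Green/red ratio, after filter-overlap correction, defined %Activity; red signal alone was normalised to basal cells and zero luminescence.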

[1] = measured here: CBR red luminescence, cell number
[2] = measured here: IkBa-CBG green luminescence

| Structure (SMILES) | AC50 [1] | AC50 [2] |
| --- | --- | --- |
| CCOC(=O)c1cnn(-c2ccccc2)c1NC(=O)c1cccs1 | 8.91 µM [rising, partial curve] | – |
| CC(C)C(=O)Nc1ccc(S(=O)(=O)Nc2nccc(/C=C/c3ccccc3)n2)cc1 | – | 18.4 µM [falling, single point] |
| Cc1c2c(nc3c(C(=O)NC4CC4)cnn13)CCCC2 | 10 µM [rising, partial curve] | – |
| CCCCNC1=CC(=O)C(=O)c2ccccc21 | 8.91 µM [falling, partial curve] | – |
| CCN(CC(=O)NCc1ccc(F)cc1)Cc1nc2cc(Cl)ccc2c(=O)[nH]1 | 0.411 µM [falling, partial curve, poor fit] | – |
| CCOC(=O)C1=C(CN2CCCCC2)NC(=O)NC1c1cc(C)ccc1C (stereo unspecified) | 0.112 µM [falling, full curve, poor fit] | – |
| Cn1cnnc1SCC(=O)c1ccc2c(c1)NC(=O)CO2 | 18.4 µM [rising, single point] | – |
| O=C(Cn1cnc2scc(-c3ccc(Cl)cc3)c2c1=O)N1CCOCC1 | 5.01 µM [rising, partial curve, poor fit] | – |
| CC(=O)NCCc1nc2cc(NC(=O)Nc3ccccc3)ccc2n1C | 10 µM [falling, partial curve, poor fit] | – |
| Nc1ccccc1NC1=CC(=O)CC(c2ccco2)C1 (stereo unspecified) | 29.1 µM [falling, single point] | – |
| CCOC(=O)CN(C)S(=O)(=O)c1ccc(-c2cc(C(=O)OC)sc2C(F)(F)F)cc1 | 3.55 µM [rising, partial curve, poor fit] | – |
| COCc1nnc(NC(=O)CCCOc2ccccc2)s1 | 29.1 µM [rising, single point] | – |
| O=C(c1ccccc1)N1CCN(c2ccc([N+](=O)[O-])cc2-n2cccc2)CC1 | 7.08 µM [rising, full curve, poor fit] | – |
| COc1ccc2c(c1)[C@H]1[C@H](CO2)[C@H](c2ccccc2)[C@]2(C)C(=O)Nc3cc(Cl)ccc3C(=O)N12 | 4.61 µM [falling, full curve] | – |
| Cc1ccc(C2=CC(c3ccccc3F)n3c(nc4ccccc43)N2)cc1C (stereo unspecified) | 3.55 µM [falling, partial curve] | – |
| Cc1ccc2nc3sc(C(=O)NCc4ccco4)c(N)c3cc2c1 | 1.46 µM [falling, partial curve, poor fit] | – |
| CC(=O)c1cccc(OCC(=O)N(C)CC(=O)NCc2ccco2)c1 | 5.8 µM [rising, partial curve, poor fit] | – |
| COc1ccc(/C=N/NC(=O)c2cccc(COCC(F)(F)C(F)F)c2)cc1 | 9.2 µM [falling, partial curve] | – |
| Nc1nc2cc3ccccc3cc2[nH]c1=O | 0.501 µM [falling, full curve] | – |
| COc1ccc(-c2nc(NC(C)=O)sc2-c2ccccc2)cc1 | 11.2 µM [falling, partial curve, poor fit] | – |
| COc1ccc(/C=C/C(=O)N/C(=C\c2ccco2)C(=O)NCCc2nc3ccccc3[nH]2)cc1 | 29.1 µM [falling, single point] | – |

| Structure (SMILES) | AC50 [1] | AC50 [2] |
| --- | --- | --- |
| CCOc1ccc(N(C)S(=O)(=O)c2ccc3[nH]cc(C(=O)NCC4CCCO4)c(=O)c3c2)cc1 (stereo unspecified) | 2.91 µM [rising, full curve, poor fit] | – |
| Oc1ccc(Br)cc1CNc1cnc2ccccc2c1 | 35.5 µM [rising, single point] | – |
| COC(=O)c1ccc(CSc2n[nH]c(=S)s2)o1 | 25.9 µM [rising, partial curve, poor fit] | – |
| CCOc1cc(NC(=S)NCCCN2CCOCC2)c(OCC)cc1NC(=O)C1CCCCC1 | 12.6 µM [rising, single point] | – |
| CCOC(=O)C(NCc1ccco1)(NC(=O)c1ccc(OC)cc1)C(F)(F)F (stereo unspecified) | 15.8 µM [rising, partial curve, poor fit] | – |
| CCCCOc1ccc(OCCSc2nc3ccccc3n2CC(=O)O)cc1 | 3.55 µM [falling, full curve, poor fit] | 0.891 µM [rising, full curve, poor fit] |
| COc1ccccc1N(C)S(=O)(=O)c1ccc(C(=O)Nc2ccc(N3CCOCC3)cc2)cc1 | 4.47 µM [rising, single point] | – |
| CCCCOc1ncnc2c1[nH]c1ccc(OC)cc12 | 0.1 µM [rising, full curve, poor fit] | – |
| COc1ccc(-c2nc3n(c2C)Cc2ccccc2-3)cc1 | 1 µM [rising, full curve, poor fit] | – |
| N=c1c2c(ncn1Cc1ccco1)Oc1c(ccc3ccccc13)C2c1ccccc1 (stereo unspecified) | 6.51 µM [falling, full curve] | 5.17 µM [rising, full curve, poor fit] |
| COc1ccc(C(=O)/C=C/c2cccnc2)c(OC)c1 | 7.94 µM [falling, partial curve] | – |
| CCOC(=O)CSc1nc(-c2ccc3c(c2)OCO3)ccc1C#N | 35.5 µM [rising, single point] | – |
| COCCOC(=O)c1c(C)oc2ccc(OCc3ccccc3)cc12 | 1.64 µM [rising, full curve, poor fit] | – |
| C[n+]1nc(Nc2cccc3ccccc23)sc1-c1ccc(C(=O)O)cc1 | 8.91 µM [falling, partial curve] | – |
| COc1cc2oc(=O)cc(-c3ccc(-c4ccc(C)cc4)cc3)c2c(OC)c1OC | 9.2 µM [rising, partial curve, poor fit] | – |
| NC(=O)c1ccccc1NS(=O)(=O)c1ccc(F)cc1 | 17.8 µM [rising, single point] | – |
| CC(=O)c1ccc(C(=O)N(Cc2cccnc2)c2nc3c(C)c(C)ccc3s2)cc1 | 3.98 µM [falling, single point] | – |
| C=CCN(CC=C)C(=S)NC(=O)c1ccc(C)c(Br)c1 | 25.9 µM [rising, single point] | 11.6 µM [falling, partial curve, poor fit] |
| Cc1cc(C(=O)OCC(=O)NC2CCS(=O)(=O)C2)c(C)n1-c1ccccc1 (stereo unspecified) | 32.6 µM [falling, single point] | – |
| O=C(Nc1ccc(C(=O)N2CCCC2)cc1)c1ccccc1Br | 35.5 µM [falling, single point] | – |
| COCc1[nH]nc2c1C(c1sccc1C)C(C#N)=C(N)O2 (stereo unspecified) | 3.55 µM [falling, partial curve] | – |

2 successive entries out of the list so far:

| Structure (SMILES) | AC50 [1] | AC50 [2] |
| --- | --- | --- |
| CCOC(=O)C(NCc1ccco1)(NC(=O)c1ccc(OC)cc1)C(F)(F)F (stereo unspecified) | 15.8 µM [rising, partial curve, poor fit] | – |
| CCCCOc1ccc(OCCSc2nc3ccccc3n2CC(=O)O)cc1 | 3.55 µM [falling, full curve, poor fit] | 0.891 µM [rising, full curve, poor fit] |

More results follow.

| Structure (SMILES) | AC50 [1] | AC50 [2] |
| --- | --- | --- |
| O=C(N/N=C/c1cn(-c2ccccc2)nc1-c1cccs1)c1ccncc1 | 0.92 µM [rising, full curve, poor fit] | – |
| c1ccc2c(c1)CC/C2=N/Nc1nc2ccccc2[nH]1 | 10 µM [falling, partial curve, poor fit] | – |
| O=C(/C=C\Nc1ccc2c(c1)OCO2)c1ccccn1 | 1.78 µM [falling, full curve] | – |
| COc1cccc(/C=N/NC(=O)CNC(=O)C(c2ccccc2)c2ccccc2)c1O | 10 µM [falling, partial curve, poor fit] | – |
| Cc1c(CC(=O)O)c(=O)oc2cc3occ(-c4ccc(F)cc4)c3cc12 | 0.112 µM [rising, full curve, poor fit] | – |
| CCC(CC)C(=O)NCCCN1CCOCC1 | 2.59 µM [rising, partial curve, poor fit] | – |
| CC(C)(C)OC(=O)NCCCC[C@H](NC(=O)c1nc[nH]c1C(=O)N1CCc2ccccc2C1)C(=O)OC(C)(C)C | 0.794 µM [falling, partial curve, poor fit] | – |
| Cc1ccc2oc(=O)n(CCCOc3ccccc3)c2c1 | 17.8 µM [rising, partial curve, poor fit] | – |
| CSc1nc2ccc(NS(=O)(=O)c3c(Cl)cccc3Cl)cc2s1 | 4.61 µM [falling, full curve] | – |
| CC(=O)Nc1ccc(N/C=C/C(=O)c2ccc(C)cc2)cc1 | 4.47 µM [rising, partial curve, poor fit] | – |
| COC(=O)c1ccc(NC(=O)Nc2ccccc2F)cc1 | 12.6 µM [falling, partial curve, poor fit] | – |
| Cn1c(/C=N/Nc2nc3ccccc3[nH]2)nc2ccccc21 | 11.2 µM [falling, partial curve] | – |
| NS(=O)(=O)c1ccc(NC2=CC(c3ccc([N+](=O)[O-])cc3)N(c3ccc(S(N)(=O)=O)cc3)C2=O)cc1 (stereo unspecified) | 35.5 µM [falling, single point] | – |
| Fc1cccc2sc(Nc3nc4cc5c(cc4s3)OCO5)nc12 | 0.116 µM [rising, full curve, poor fit] | – |
| CCc1ccccc1OCC(=O)N(CC)CC(=O)NCc1ccc(F)cc1 | 18.4 µM [falling, partial curve, poor fit] | – |
| N/C(=N\c1nc(C(F)(F)F)cc(=O)[nH]1)Nc1ccc(Cl)cc1 | 6.51 µM [rising, single point] | – |
| Cn1cc([N+](=O)[O-])c(C(=O)Nc2cnn(Cc3ccc(F)cc3)c2)n1 | 3.26 µM [falling, partial curve, poor fit] | – |
| O=C(Nc1cccc(Cl)c1N1CCOCC1)c1cccs1 | 8.91 µM [falling, partial curve, poor fit] | – |
| CCc1cc(C(=O)NCCN(C)C)cs1 | 0.326 µM [rising, full curve, poor fit] | – |
| N#Cc1cc2c(nc1SCC(N)=O)CCCCC2 | 20.6 µM [falling, partial curve] | – |
| O=C(CCS(=O)(=O)c1ccccc1)Nc1ccc(-c2nc3ccccc3s2)c(O)c1 | 2.06 µM [falling, full curve] | – |
